# Screen size: about 580,000 compounds; about 6,100 (1.1%) were called active. Inconclusive results, whose numbers are uncertain, are shown with a selection of clear calls. Calls follow the shape of the dose curve; as a rule, active = well fitted inhibition curve with a large enough effect; inconclusive = small, poorly fitted or top-dose-only effect, or another doubt; inactive = no such curve, though single readings can be large or run the other way. A potency beside an inconclusive call is a rough fit, not a confirmed value.
# Chains of the proteins cited; added tags and fusions are not shown. Lines headed by an entry give the natural chain unless they say otherwise; changes in a name come on top.
# UniProt P18054: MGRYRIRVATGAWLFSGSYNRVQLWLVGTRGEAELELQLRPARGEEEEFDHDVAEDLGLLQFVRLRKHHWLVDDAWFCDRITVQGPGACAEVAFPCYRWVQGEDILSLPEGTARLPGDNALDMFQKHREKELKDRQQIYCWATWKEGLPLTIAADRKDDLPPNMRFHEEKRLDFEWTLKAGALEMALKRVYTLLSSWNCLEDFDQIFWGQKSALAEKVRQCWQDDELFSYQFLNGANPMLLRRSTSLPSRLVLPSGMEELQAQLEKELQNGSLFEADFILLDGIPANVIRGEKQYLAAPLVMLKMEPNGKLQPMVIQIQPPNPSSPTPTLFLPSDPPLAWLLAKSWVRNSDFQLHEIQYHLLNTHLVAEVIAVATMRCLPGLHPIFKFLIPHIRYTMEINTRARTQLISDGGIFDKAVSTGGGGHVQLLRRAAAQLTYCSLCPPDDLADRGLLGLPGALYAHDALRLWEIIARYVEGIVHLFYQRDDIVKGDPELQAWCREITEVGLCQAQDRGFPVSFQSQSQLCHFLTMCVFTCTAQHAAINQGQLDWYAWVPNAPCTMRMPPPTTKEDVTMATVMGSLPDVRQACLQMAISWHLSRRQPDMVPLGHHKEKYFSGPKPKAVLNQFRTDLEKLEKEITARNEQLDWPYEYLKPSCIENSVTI
# Target: Polyunsaturated fatty acid lipoxygenase ALOX12 (Homo sapiens) (UniProt P18054)
# Assay: Primary qHTS assay for inhibitors of human arachidonate 12S-lipoxygenase (ALOX12): Round 2
# Settings: purified 12hLO, xylenol orange hydroperoxide absorbance; activity change, negative = inhibition: at 108 µM (top of the series) unless noted
# How it was run: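 Purified human 12hLO at 150 nM in 25 mM Hepes, 0.01% Triton X-100, pH 7.0, preincubated 15 min at room temperature with compound. Reaction started with 40 uM arachidonic acid, 30 min at room temperature. Hydroperoxide measured by Fe-xylenol orange, 573/405 nm absorbance ratio.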
# % is scaled to controls: 0 for no effect and ±100 for the full control effect; potency is read from the fitted curve at half-maximal effect.
SMILES,Potency,"activity change, negative = inhibition"
CCc1ccc(S(=O)(=O)N2[C@@H]3CC[C@H]2CC(NC(=O)c2ccncc2)C3)cc1 (stereo not given in full),"inconclusive: 44.7 µM [inhibitor, partial curve]",
Cc1ccccc1NC(=S)NC(C)CCc1ccccc1 (stereo not given),"inconclusive: 39.8 µM [inhibitor, partial curve, poor fit]",
O=C(/C=C/c1ccco1)N1CCCC(c2ccccc2)C1 (stereo not given),"inconclusive: 50.1 µM [inhibitor, partial curve, poor fit]",
COCCNC(=O)/C(C#N)=C/c1cccs1,,inactive: 54.1%
CCCCCCS(=O)[C@H]1CS(=O)(=O)C[C@@H]1S(=O)CCCCCC (stereo not given in full),"inconclusive: 2.51 µM [inhibitor, full curve, poor fit]",
COc1ccc(N2CCN(C(=O)c3ccc4c(c3)N(C)C3CCCCN3C4=O)CC2)cc1 (stereo not given),"inconclusive: 89.1 µM [inhibitor, partial curve, poor fit]",
CS(=O)(=O)c1ncc(Cl)c(C(=O)N(Cc2ccc(Cl)cc2)Cc2ccco2)n1,,inactive: -26.2%
CC(C)n1nccc1N(CC(=O)Nc1cccc(Br)c1)S(=O)(=O)c1ccccc1,"inconclusive: 50.1 µM [inhibitor, partial curve, poor fit]",
Cc1cc(OCCCCCN2CCCC2)ccc1Cl,"inconclusive: 1.58 µM [inhibitor, partial curve, poor fit]",
O=C(c1ccc(-c2cccc(C(F)(F)F)c2)o1)N1CCCCCCC1,"inconclusive: 11.2 µM [inhibitor, partial curve, poor fit]",
Cc1cccc(/C=C/c2cc(C(=O)O)c3ccccc3n2)c1,"inconclusive: 17.8 µM [inhibitor, full curve, poor fit]",
CN1CCN(c2nc(-c3ccc(Cl)s3)cs2)CC1,active: 8.91 µM,
COc1ccc(OC)c(C2C(C(C)=O)=C(O)C(=O)N2Cc2cccnc2)c1 (stereo not given),"inconclusive: 2 µM [inhibitor, full curve]",
Cc1nnnn1-c1cccc(C(=O)N2CCCC(O)(CN(C)C)CC2)c1 (stereo not given),,inactive: 33.3%
Cc1ccc2ccc(C(Nc3ccccc3)c3ccc(Cl)cc3)c(O)c2n1 (stereo not given),"inconclusive: 28.2 µM [inhibitor, partial curve, poor fit]",
COc1ccc(CN2CCC3(C2)C(=NC2CCCC2)NC(=O)N3c2cccc(OC)c2)cc1 (stereo not given),,inactive: 1.38% [at 6.33 µM]
COc1ccc(C)cc1NC(=O)/C=C/c1ccc2ccccc2n1,"inconclusive: 14.1 µM [inhibitor, full curve, poor fit]",
CCN(Cc1ccccc1)C(=O)c1ccc(N(C)S(=O)(=O)c2ccc(C)cc2)cc1,"inconclusive: 50.1 µM [inhibitor, partial curve, poor fit]",
O=C(O)Cc1sc(Nc2ccccc2)nc1-c1cccs1,"inconclusive: 44.7 µM [inhibitor, partial curve]",
Cc1cc(OC(=O)c2ccc(S(=O)(=O)N(C)C)cc2)cc(=O)o1,"inconclusive: 6.31 µM [inhibitor, partial curve, poor fit]",

# A portion from further up, for reference:
SMILES,Potency,"activity change, negative = inhibition"
Cc1nnnn1-c1cccc(C(=O)N2CCCC(O)(CN(C)C)CC2)c1 (stereo not given),,inactive: 33.3%
Cc1ccc2ccc(C(Nc3ccccc3)c3ccc(Cl)cc3)c(O)c2n1 (stereo not given),"inconclusive: 28.2 µM [inhibitor, partial curve, poor fit]",
COc1ccc(CN2CCC3(C2)C(=NC2CCCC2)NC(=O)N3c2cccc(OC)c2)cc1 (stereo not given),,inactive: 1.38% [at 6.33 µM]

# Next records follow:

SMILES,Potency,"activity change, negative = inhibition"
CC(=O)c1cccc(NC(=O)C2CCCN(S(=O)(=O)c3ccc(F)cc3)C2)c1 (stereo not given),,inactive: 65.2%
COc1ccccc1NS(=O)(=O)c1cc(NC(=O)c2cccs2)ccc1N1CCCC1,"inconclusive: 56.2 µM [inhibitor, partial curve, poor fit]",
C=CCn1c(SCc2csc(-c3ccc(C)cc3)n2)nnc1-c1ccccc1OC,"inconclusive: 100 µM [inhibitor, partial curve, poor fit]",
O=C(NC1CCS(=O)(=O)C1)c1ccc(S(=O)(=O)N2CCCCC2)cc1 (stereo not given),"inconclusive: 112 µM [inhibitor, single point]",
CCOC(=O)CN1C(C(C)=O)=C(OC(=O)CC)c2ccccc2S1(=O)=O,"inconclusive: 11.2 µM [inhibitor, full curve, poor fit]",
O=C(COC(=O)c1cc[n+]([O-])cc1)Nc1cccc(F)c1,"inconclusive: 126 µM [inhibitor, single point]",
COc1ccccc1NS(=O)(=O)c1cccc(NS(=O)(=O)c2cc(C(=O)O)ccc2Cl)c1,"inconclusive: 44.7 µM [inhibitor, partial curve, poor fit]",
COc1cc(Cl)c(C)cc1N1C(=O)CN(Cc2ccccc2)C1=S,"inconclusive: 56.2 µM [inhibitor, partial curve, poor fit]",
CCOC(=O)c1ccccc1NC(=O)CN1CCCN(Cc2ccccc2)S1(=O)=O,,inactive: -14.7%
Cc1ccc(C(=O)N/N=C/c2ccc(-c3ccc(Br)cc3[N+](=O)[O-])o2)o1,,inactive: -18.7%
O=C1NCc2ccccc2CC12CCN(Cc1ccccc1C(F)(F)F)C2 (stereo not given),,inactive: 4.21% [at 6.33 µM]
CCN(CC(=O)Nc1ccc(NC(C)=O)cc1)C(=O)c1nn(-c2ccccc2)c2c1CCC2,"inconclusive: 141 µM [inhibitor, single point]",
Cc1ccccc1-c1cc2nc(NCc3ccc(N(C)C)cc3)n(C)c(=O)c2s1,"inconclusive: 112 µM [inhibitor, partial curve, poor fit]",
COCC1CN(C(=O)CCc2ccccc2OC)CC12CCNCC2 (stereo not given),"inconclusive: 39.8 µM [inhibitor, single point]",
COc1cc(Cl)c(C)cc1NC(=O)c1c(C)oc2nc(C)nc(N3CCCC3)c12,"inconclusive: 56.2 µM [inhibitor, partial curve, poor fit]",
CCC1CCC2(CC1)NC(=O)N(Cc1coc(-c3cccs3)n1)C2=O (stereo not given),,inactive: -32.6%
CCNc1c(NC(=O)Nc2ccc(Cl)cc2)c(=O)oc2ccccc12,"inconclusive: 56.2 µM [inhibitor, partial curve, poor fit]",
COc1ccc(CC2(CO)CCN(Cc3cnn(-c4ccc(F)cc4)c3)CC2)cc1,,inactive: 13.4%
O=C1OCCN1C(=O)[C@H]1[C@H](c2ccccc2)C(c2ccc(F)cc2)=NN1c1ccccc1,"inconclusive: 112 µM [inhibitor, single point]",
O=C(Cn1c(-c2cccs2)cc2ccccc21)NCCCN1CCN(c2cccc(Cl)c2)CC1,,inactive: -3.37%

# — PubChem BioAssay AID1671190 (National Center for Advancing Translational Sciences (NCATS), 2021)
